Assay [1] deals with T1, Pcf1-YFP (S. pombe) (UniProt Q1MTN9).
T1 sequence: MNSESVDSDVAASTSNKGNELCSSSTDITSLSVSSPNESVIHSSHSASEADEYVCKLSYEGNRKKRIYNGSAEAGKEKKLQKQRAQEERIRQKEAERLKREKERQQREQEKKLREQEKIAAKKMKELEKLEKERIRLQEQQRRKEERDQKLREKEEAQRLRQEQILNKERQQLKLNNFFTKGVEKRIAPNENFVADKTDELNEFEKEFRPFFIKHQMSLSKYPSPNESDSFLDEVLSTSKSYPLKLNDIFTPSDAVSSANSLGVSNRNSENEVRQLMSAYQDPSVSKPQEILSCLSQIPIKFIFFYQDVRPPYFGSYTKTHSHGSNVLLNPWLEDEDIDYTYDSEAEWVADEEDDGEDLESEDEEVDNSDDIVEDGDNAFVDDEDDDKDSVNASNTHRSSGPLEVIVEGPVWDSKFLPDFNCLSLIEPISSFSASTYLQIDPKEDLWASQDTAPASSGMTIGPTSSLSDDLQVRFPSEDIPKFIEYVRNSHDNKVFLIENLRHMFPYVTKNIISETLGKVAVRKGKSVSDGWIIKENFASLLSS

The target of assay [2] is T1, Pcf1-YFP (S. pombe). This is another data set of the same source.

The record followed here is paper PMC6795475.

Read-outs that look alike come from different tables or passages of the source. Results are given in words; binding and its absence hold for the method and conditions named. In cells and extracts the contact can be indirect. Some binding calls cover weakened binding; strength is not graded here. Sequences can lack the tags named with a protein.

B1: Rqh1-MYC (protein, UniProt Q09811 1-1328)
chain: MTVTKTNLNRHLDWFFRESPQKIENVTSPIKTLDFVKVKVSSSDIVVKDSIPHKSKNVFDDFDDGYAIDLTEEHQSSSLNNLKWKDVEGPNILKPIKKIAVPASESEEDFDDVDEEMLRAAEMEVFQSCQPLAVNTADTTVSHSTSSSNVPRSLNKIHDPSRFIKDNDVENRIHVSSASKVASISNTSKPNPIVSENPISATSVSIEIPIKPKELSNNLPFPRLNNNNTNNNNDNNAIEKRDSASPTPSSVSSQISIDFSTWPHQNLLQYLDILRDEKSEISDRIIEVMERYPFSSRFKEWIPKRDILSQKISSVLEVLSNNNNSNNNNGNNGTVPNAKTFFTPPSSITQQVPFPSTIIPESTVKENSTRPYVNSHLVANDKITATPFHSEAVVSPLQSNIRNSDIAEFDEFDIDDADFTFNTTDPINDESGASSDVVVIDDEEDDIENRPLNQALKASKAAVSNASLLQSSSLDRPLLGEMKDKNHKVLMPSLDDPMLSYPWSKEVLGCLKHKFHLKGFRKNQLEAINGTLSGKDVFILMPTGGGKSLCYQLPAVIEGGASRGVTLVISPLLSLMQDQLDHLRKLNIPSLPLSGEQPADERRQVISFLMAKNVLVKLLYVTPEGLASNGAITRVLKSLYERKLLARIVIDEAHCVSHWGHDFRPDYKQLGLLRDRYQGIPFMALTATANEIVKKDIINTLRMENCLELKSSFNRPNLFYEIKPKKDLYTELYRFISNGHLHESGIIYCLSRTSCEQVAAKLRNDYGLKAWHYHAGLEKVERQRIQNEWQSGSYKIIVATIAFGMGVDKGDVRFVIHHSFPKSLEGYYQETGRAGRDGKPAHCIMFYSYKDHVTFQKLIMSGDGDAETKERQRQMLRQVIQFCENKTDCRRKQVLAYFGENFDKVHCRKGCDICCEEATYIKQDMTEFSLQAIKLLKSISGKATLLQLMDIFRGSKSAKIVENGWDRLEGAGVGKLLNRGDSERLFHHLVSEGVFVEKVEANRRGFVSAYVVPGRQTIINSVLAGKRRIILDVKESSSKPDTSSRSLSRSKTLPALREYQLKSTTASVDCSIGTREVDEIYDSQMPPVKPSLIHSRNKIDLEELSGQKFMSEYEIDVMTRCLKDLKLLRSNLMAIDDSRVSSYFTDSVLLSMAKKLPRNVKELKEIHGVSNEKAVNLGPKFLQVIQKFIDEKEQNLEGTELDPSLQSLDTDYPIDTNALSLDHEQGFSDDSDSVYEPSSPIEEGDEEVDGQRKDILNFMNSQSLTQTGSVPKRKSTSYTRPSKSYRHKRGSTSYSRKRKYSTSQKDSRKTSKSANTSFIHPMVKQNYR
With B1, in assay [1], the binding entry was “binds”.

B2: Pcf2-MYC (protein, UniProt O13985 1-512)
chain: MRAEVLQIRWHYDANDDHTPIYSVDFQKNSLNKFATCGGDSKIRIWQLITSESSTKVEYLSTLSRHTQAVNVVRFNPEGNILATAGDEGTIMLWVPTNTPITTLADDAEELALAKEYWKVKIVCRSMGSEIYDLCWSVDSNFLIAGAMDNSLRLYDAHTGQLLTQKFDHSHYVQGVCWDPLNQYIVSESSDRSICLYEIQEEKKNPKKFQLVLKSRICRIEYNVTKFELISVTKPLNNDESSGISEPIETSNNNESPVSKHEALSSTANIVKDGSLERTEPPNSLNSKISYSLYCNETLVSFFRRPAFSPDGLLLVTPAGRLRPHGQPNFEVPYTAYIYTRGSITKQPVACLNGFKKPVIAVRFSPIHYELNSFSNFSFTSVSFNLPYRMVFAVACQDAVYIYDTQTCKPFYRAVNLHYSNLTDIAWNDDGNVLLMTSIDGFCSVITFEPGELGVKSQHKISLPEKRSASPSSIDDSQDNTAGGPATTTLIPRKVESSKVSKKRIAPTPVYP
In the case of B2, in assay [2], the binding result is “binds”.
